Reference: PubChem BioAssay AID1688 (National Center for Advancing Translational Sciences (NCATS), 2009)
Out of some 220,000 compounds screened, about 2,400 (1.1%) were called active. Inconclusive means that the source gave no clear call. Such entries were picked first, then a sample of the others. The call rests on the fitted dose curve; in most records, active means well fitted inhibition curve with a large enough effect; inconclusive means small, poorly fitted or top-dose-only effect, or effect the other way; inactive means no such curve, though single readings can be large or run the other way. Potencies of inconclusive entries are doubtful fits and often do not repeat.
On the % scale 0 is the no-effect control and ±100 the full control effect; potency means the concentration at half of the fitted maximal effect.

Assay: qHTS Multiplex Assay to Identify Dual Action Probes in a Cell Model of Huntington: Aggregate Formation (GFP); further: nearly all actives have a fitted effect of over 60% in size
Details: PC12 HttQ103-GFP aggregates, Acumen cytometry, 40 h; activity change, negative = inhibition: at 46.1 µM (top of the series) unless noted
In short: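 Compounds (qHTS titration) were added to PC12 cells expressing an ecdysone-driven HTT exon 1 Q103–GFP fusion after induction with 100 nM tebufenozide. Aggregate formation was measured as GFP objects in cell lysates.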
With `O=C(NCc1ccccc1)c1ccccc1OCC(=O)N1CCCCC1` the “activity change, negative = inhibition” value was inactive: 24.3%.
In the case of `COc1ccccc1-c1nnc(NC(=O)c2ccc(S(=O)(=O)N(C)Cc3ccccc3)cc2)o1`, the Potency is reported as inconclusive: 0.562 µM [inhibitor, full curve, poor fit].
With `Cc1cc(CN2CCN(CCC#N)CC2)c(O)c(C2(C)CCCCC2)c1` the “activity change, negative = inhibition” value was inactive: -14.1%.
In the case of `CCOC(=O)c1cnn(-c2nc(OCC)cc(OCC)n2)c1C`, the “activity change, negative = inhibition” value is reported as inactive: -20.3%.
In the case of `CCOc1ccccc1C(=O)N1CCC(n2nnc3cc(C(F)(F)F)ccc32)CC1`, the Potency is reported as inconclusive: 35.5 µM [inhibitor, single point].
With `O=C(Cn1nnc(-c2cccc(C(F)(F)F)c2)n1)NC1CCCC1` the “activity change, negative = inhibition” value was inactive: 0.179%.
With `Cc1cccc(C(=O)O/N=C/c2c(N3CCOCC3)n(C)c3ccccc23)c1` the Potency was inconclusive: 3.98 µM [inhibitor, single point].
In the case of `COCCCNC(=O)Cn1cnc2sc(C)c(S(=O)(=O)N3CCN(c4ncccn4)CC3)c2c1=O`, the “activity change, negative = inhibition” value is reported as inactive: -10.7%.
For `Cc1c(Cl)cccc1NC(=S)NCCC(C)C`, the “activity change, negative = inhibition” value was inactive: 0.691%.
In the case of `Cc1cc(N2CCN(C)CC2)nc2ccc(NC(=S)N3CCN(c4cccc(Cl)c4)CC3)cc12`, the Potency is reported as inconclusive: 35.5 µM [activator, single point].
For `CCOC(=O)c1ccc(-n2c(O)c(/C=N/NC(=O)C3COc4ccccc4O3)c3ccccc3c2=O)cc1` (stereo not drawn), the Potency was active: 17.8 µM.
In the case of `Nc1c(C(=O)NCc2ccco2)c2nc3ccccc3nc2n1CCc1ccccc1F`, the Potency is reported as inconclusive: 8.91 µM [inhibitor, partial curve, poor fit].
In the case of `O=C(NCCc1ccccc1)c1noc2c1CCc1ccccc1-2`, the “activity change, negative = inhibition” value is reported as inactive: 2.15%.
For `CCN(CC)c1ccc(NC(=O)c2cc(OC)cc(OC)c2)c(C)c1`, the Potency was active: 3.16 µM.
In the case of `O=C(Nc1nc2ccccc2s1)c1ccc(OCC2CCCO2)cc1` (stereo not drawn), the Potency is reported as active: 31.6 µM.
For `Nc1ncnc(Nc2ccccn2)c1[N+](=O)[O-]`, the Potency was inconclusive: 8.91 µM [inhibitor, partial curve].
In the case of `O=C(C1CCCCC1)N1CCN(c2ccnc3cc(Cl)ccc23)CC1`, the activity change, negative = inhibition is reported as inactive: -28.3% [at 9.22 µM].
For `COC(=O)c1ccc(N/C(C)=C/C(=O)c2ccc(C)o2)cc1`, the Potency was active: 3.98 µM.
With `O=C(CCOc1ccccc1)OCC(=O)c1cc2ccccc2o1` the “activity change, negative = inhibition” value was inactive: -10.2%.
For `Cc1cc(C)nc(SCc2ccc([N+](=O)[O-])cc2)n1`, the activity change, negative = inhibition was inactive: 0.278% [at 9.22 µM].
In the case of `CCCSc1ncc(Cl)c(C(=O)Nc2ccc(S(=O)(=O)N3CC(C)OC(C)C3)cc2)n1` (stereo not drawn), the Potency is reported as inconclusive: 35.5 µM [inhibitor, single point].
In the case of `Cc1ccccc1CSCC(=O)NCCSc1ccccn1`, the “activity change, negative = inhibition” value is reported as inactive: -18.7%.
In the case of `C=CCn1c(CCn2c3ccccc3c3ccccc32)n[nH]c1=S`, the Potency is reported as inconclusive: 1.78 µM [activator, single point].
In the case of `COc1ccc(/C=C/C(=O)Nc2cccc(F)c2)cc1S(=O)(=O)N1CCOCC1`, the Potency is reported as inconclusive: 3.55 µM [activator, full curve, poor fit].
With `CCOC(=O)C1=C(C)n2c(s/c(=C/c3cccc([N+](=O)[O-])c3)c2=O)=NC1c1ccc(O)c(OC)c1` (stereo not drawn) the Potency was inconclusive: 11.2 µM [activator, partial curve, poor fit].
For `O=C(CSc1nnc(COc2ccc(F)cc2)o1)N1c2ccccc2CCc2ccccc21`, the Potency was inconclusive: 35.5 µM [inhibitor, single point].
For `Cc1c(Cl)cccc1-n1c(SCC(=O)N(C)Cc2ccccc2)nnc1-c1ccncc1`, the Potency was inconclusive: 22.4 µM [activator, partial curve].
With `CCOC(=O)c1c(NC(=O)C2CCCCC2C(=O)O)sc2c1CCCCC2` (stereo not drawn) the Potency was inconclusive: 35.5 µM [inhibitor, single point].
For `O=C(Nc1ccc(Cl)cc1)N1CCC(c2nc(-c3cccs3)no2)CC1`, the Potency was inconclusive: 35.5 µM [inhibitor, single point].
For `CCC1CCc2c(sc3ncnc(N4CCOCC4)c23)C1` (stereo not drawn), the Potency was inconclusive: 3.16 µM [inhibitor, single point].
With `CC(=O)c1cccc(NC(=O)c2cc(C)no2)c1` the Potency was inconclusive: 20 µM [inhibitor, single point].
For `COc1ccc(N=C2NC(=O)S/C2=C\c2ccc(N(C)C)cc2)cc1`, the “activity change, negative = inhibition” value was inactive: -4.95%.
With `Cc1cc(C(=S)N2CCOCC2)c(C)n1-c1ccc(Cl)cc1` the “activity change, negative = inhibition” value was inactive: 12.7%.
In the case of `O=C(Nc1ccc(-c2nc3cccnc3s2)cc1)C1CCCO1` (stereo not drawn), the Potency is reported as inconclusive: 12.6 µM [inhibitor, single point].
In the case of `CC1CCc2c(sc3nc(CN4CCOCC4)nc(Sc4ccccc4)c23)C1` (stereo not drawn), the “activity change, negative = inhibition” value is reported as inactive: 29.6%.
With `O=C(CCCN1C(=O)/C(=C/c2ccccc2Cl)SC1=S)Nc1ccccn1` the “activity change, negative = inhibition” value was inactive: -12.1%.
For `COc1ccc(C(=O)NC(=S)Nc2ccc(Cc3ccncc3)cc2)cc1`, the “activity change, negative = inhibition” value was inactive: -16.6%.
For `N#C/C(=C\c1ccccc1)C(=O)Nc1cc(S(=O)(=O)N2CCOCC2)ccc1N1CCCC1`, the Potency was inconclusive: 5.62 µM [inhibitor, single point].
For `CCn1c(CCNC(=O)c2cccs2)n[nH]c1=S`, the Potency was inconclusive: 0.0891 µM [inhibitor, full curve, poor fit].
With `Cc1ccc(C)n1-c1nccc(-c2ccco2)n1` the “activity change, negative = inhibition” value was inactive: 5.73%.
With `Oc1ccc(N=Nc2n[nH]c(-c3ccc(Br)cc3)n2)cc1` the Potency was inconclusive: 7.94 µM [inhibitor, partial curve].
In the case of `Cc1c(C(=O)NCCSCc2ccc(Cl)cc2Cl)cccc1[N+](=O)[O-]`, the Potency is reported as inconclusive: 5.62 µM [inhibitor, single point].
With `CCN(CCN(C)C)C(=O)c1ccc2c(c1NCCO)C(=O)c1ccccc1C2=O` the Potency was inconclusive: 12.6 µM [inhibitor, single point].
In the case of `O=C(Nc1ccc(OCC(F)(F)C(F)F)c(C(F)(F)F)c1)c1ccccc1O`, the Potency is reported as active: 5.01 µM.
For `COc1ccc(C2CC(=O)C3=C(C2)Nc2ccccc2NC3c2coc3ccccc3c2=O)cc1OC` (stereo not drawn), the “activity change, negative = inhibition” value was inactive: -0.292%.
For `C[C@@H]1COc2c(N3CCN(C)CC3)c(F)cc3c(=O)c(C(=O)O)cn1c23`, the “activity change, negative = inhibition” value was inactive: 4.49%.
With `Cc1cc2nnc(SC3CCCCN(C(=O)c4ccc(F)cc4)C3=O)n2c2ccccc12` (stereo not drawn) the “activity change, negative = inhibition” value was inactive: 11.4%.
In the case of `O=C(CSCc1nc2ccccc2[nH]1)N1CCN(c2cccc(Cl)c2)CC1`, the Potency is reported as active: 25.1 µM.
